Assay results reported in patent US10851043B1, “Compound for fatty acid synthase inhibition” (KANNUR UNIVERSITY, priority 2019, dated 2020).

Tested on: L929 (Fibroblast cells)
Test: In-vitro cytotoxic effect on cultured L929 cells (MTT assay)
Type: cell-based
Settings: 24 hours
Procedure: Cultures of L929 (Fibroblast cells) were maintained in Dulbecco's modified eagles media supplemented with 10% fetal bovine serum (FBS) and grown to confluence at 37° C. and 5% CO2 in a humidified atmosphere using a CO2 incubator. The cells were trypsinised (500 μL of 0.025% Trypsin in PBS/0.5 mM Ethylene diamine tetraacetic acid (EDTA) solution for 2 minutes and passed to T flasks under complete aseptic conditions. Test compounds were added to grown cells at a final concentration of 6.25, 12.5, 25, 50 and 100 μg/mL from a stock of 1 mg/mL and incubated for 24 hours. The percentage difference in viability was determined by standard MTT assay after 24 hours of incubation. The MTT assay is a colorimetric assay for assessing cell metabolic activity. NAD (P) H-dependent cellular oxidoreductase enzymes under defined conditions, reflect the number of viable cells present.
Viability percentage was calculated using the Formula, % viability=(OD of Test/OD of control)×100, • where control OD was 0.993.

Compound: CC(C)[C@H](O)C(=O)/C(O)=C/[C@@H](N)/C=C\CCCC[C@H]1C=C[C@@H](O)C=C1 [Compound of Formula II, (3S,5Z,7S,8Z)-7-amino-3,5-dihydroxy-2-methyl-13-[(1s,4s)-4-hydroxycyclohexa-2,5-dien-1-yl]trideca-5,8-dien-4-one]
- Average Absorbance @ 540 nm (L929, 6.25 μg/mL): 0.901
- Average Absorbance @ 540 nm (L929, 12.5 μg/mL): 0.852
- Average Absorbance @ 540 nm (L929, 25 μg/mL): 0.741
- Average Absorbance @ 540 nm (L929, 50 μg/mL): 0.638
- Average Absorbance @ 540 nm (L929, 100 μg/mL): 0.554
